For 38 sequences, binding signal results are on record in PMC7862700.

Sequences of proteins named here, by UniProt entry; tags and fusion partners are left off. A change or cut given only in a name is not applied to a line headed by its entry.
UniProt O43186: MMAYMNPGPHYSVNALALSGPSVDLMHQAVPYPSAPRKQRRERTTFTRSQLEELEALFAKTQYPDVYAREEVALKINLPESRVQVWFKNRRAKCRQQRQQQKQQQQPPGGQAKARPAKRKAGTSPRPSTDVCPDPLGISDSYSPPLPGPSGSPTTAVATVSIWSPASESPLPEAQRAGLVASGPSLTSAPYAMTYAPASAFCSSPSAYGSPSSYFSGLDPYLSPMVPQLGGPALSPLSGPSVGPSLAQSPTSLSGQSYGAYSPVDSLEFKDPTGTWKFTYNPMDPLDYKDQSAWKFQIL

Only a part is listed here, and it is no random draw. At the low end of the ranking, values are background and their order means little.

The target in one experiment is T1, FEV (UniProt Q99581).
T1 sequence: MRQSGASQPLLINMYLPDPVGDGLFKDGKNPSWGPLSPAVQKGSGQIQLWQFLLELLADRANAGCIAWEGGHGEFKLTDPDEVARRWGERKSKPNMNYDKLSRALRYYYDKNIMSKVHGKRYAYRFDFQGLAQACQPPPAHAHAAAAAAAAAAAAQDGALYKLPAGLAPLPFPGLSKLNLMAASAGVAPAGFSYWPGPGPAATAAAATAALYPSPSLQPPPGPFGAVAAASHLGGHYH
Put plainly: DAPPL (digital affinity profiling via proximity ligation, sequencing). The settings on record: 10 mM Tris-HCl pH 7.5, 50 mM NaCl, 1 mM DTT, 4% glycerol, room temperature, 30 min; GST-TFs on glutathione beads, 16-mer random dsDNA library, 0.1% …; high values mean tight binding; double strand, one strand shown; scale: fold enrichment (6-mer frequency, TF over GST control).
As to GCGAGC, the binding signal came out at 0.892.
The same measure, in the same setting: the figure for GCGGGT is 0.564.
Regarding CCGTCG, the binding signal was determined as 0.775.
On the same count and under the same terms, the figure for CGAGAC is 0.615; for GGTGTA it is 0.874.
In turn, GTGAGT gave a binding signal of 0.122.
The sequence GTAAGT gave a binding signal of 0.693.
Consider AGAGCA, for which the binding signal was 0.718.
For the sequence CGCCAG, the binding signal was 0.652.
The same measure, in the same setting: the figure for CAAAGG is 0.811; for GCATAG it is 0.803.
GAACGG had a binding signal of 0.634.
For AGTCAA, the binding signal is 0.601.
Sequence CGGGTT showed a binding signal of 0.847.
In turn, CGTCGT yielded a binding signal of 0.88.
As for AAGTCG, the binding signal is 0.489.
Still for that read-out and setting: for TGCCGT the value was 0.834; for GTGTGT, 0.457.
GTGTGA registered a binding signal of 0.516.
Sequence CAGTCG showed a binding signal of 0.162.
Regarding GTCGCA, the binding signal came to 0.768.
The same measure, in the same setting: for TCGGGA the value was 0.357; for CGAGTG, 0.802; for CTGTGA, 0.506.
As for TAGTGA, the binding signal was 0.565.
Sequence ACAGAC yielded a binding signal of 0.832.
In the case of GATTGT, the binding signal stood at 0.799.
The same measure, in the same setting: the figure for GTGCGG is 0.662; for GTGCGA it is 0.812; for GTGCGT it is 0.565.
The same measure, in the same setting: for ATCGGC the value was 0.652.
Sequence ACAGAG had a binding signal of 0.71.
For the sequence GGCGAT, the binding signal came out at 0.812.
On the same count and under the same terms, the figure for GTTGTG is 0.832.
For AGCACC, the binding signal was determined as 0.925.
The sequence GAGGAG came in with a binding signal of 0.197.
Still for that read-out and setting: for GGCCCA the value was 0.854.
As for GCGGAC, the binding signal is 0.724.

Another experiment concerns the target CRX (UniProt O43186). The description is as above. The note with it: 10 mM Tris-HCl pH 7.5, 50 mM NaCl, 1 mM DTT, 4% glycerol, room temperature, 30 min; GST-TFs on glutathione beads, 16-mer random dsDNA library, 0.1% …; high values mean tight binding; double strand, one strand shown; scale: fold enrichment (6-mer frequency, TF over GST control).
Turning to GCGAGC, the binding signal came out at 0.707.
In the case of GCGGGT, the binding signal worked out at 0.515.
The same measure, in the same setting: for CCGTCG the value was 0.596; for CGAGAC, 0.502; for GGTGTA, 0.671.
In turn, GTGAGT gave a binding signal of 0.121.
On the same count and under the same terms, for GTAAGT the value was 0.812; for AGAGCA, 0.652.
Still for that read-out and setting: the figure for CGCCAG is 0.498; for CAAAGG it is 0.797; for GCATAG it is 0.731.
Regarding GAACGG, the binding signal was 0.458.
As for AGTCAA, the binding signal amounted to 0.536.
The same measure, in the same setting: the figure for CGGGTT is 0.759; for CGTCGT it is 0.642; for AAGTCG it is 0.483.
Turning to TGCCGT, the binding signal is 0.686.
On the same count and under the same terms, for GTGTGT the value was 0.399; for GTGTGA, 0.463; for CAGTCG, 0.147.
For the sequence GTCGCA, the binding signal worked out at 0.519.
Consider TCGGGA, for which the binding signal was 0.429.
The same measure, in the same setting: the figure for CGAGTG is 0.679; for CTGTGA it is 0.44.
The same measure, in the same setting: the figure for TAGTGA is 0.693.
The same measure, in the same setting: the figure for ACAGAC is 0.624.
On to GATTGT, for which the binding signal worked out at 0.948.
Still for that read-out and setting: the figure for GTGCGG is 0.488.
Still for that read-out and setting: for GTGCGA the value was 0.668; for GTGCGT, 0.422.
Still for that read-out and setting: for ATCGGC the value was 0.805.
With ACAGAG, the binding signal worked out at 0.655.
Take GGCGAT: the binding signal was 0.91.
On the same count and under the same terms, the figure for GTTGTG is 0.665; for AGCACC it is 0.759; for GAGGAG it is 0.163.
GGCCCA yielded a binding signal of 0.656.
Still for that read-out and setting: the figure for GCGGAC is 0.482.

In the next experiment the target is T2, ELF5 (UniProt Q9UKW6-2).
T2 sequence: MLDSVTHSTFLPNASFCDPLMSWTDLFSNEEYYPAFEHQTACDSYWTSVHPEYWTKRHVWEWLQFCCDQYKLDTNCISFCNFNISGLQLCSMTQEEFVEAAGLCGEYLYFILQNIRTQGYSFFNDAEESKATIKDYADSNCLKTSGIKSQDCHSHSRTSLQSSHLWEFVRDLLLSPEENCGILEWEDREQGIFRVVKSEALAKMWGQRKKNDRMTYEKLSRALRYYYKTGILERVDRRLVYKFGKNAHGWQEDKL
The experiment is described as above. The settings on record: 10 mM Tris-HCl pH 7.5, 50 mM NaCl, 1 mM DTT, 4% glycerol, room temperature, 30 min; GST-TFs on glutathione beads, 16-mer random dsDNA library, 0.1% …; high values mean tight binding; double strand, one strand shown; scale: fold enrichment (6-mer frequency, TF over GST control).
As to GCGAGC, the binding signal was 0.795.
On to GCGGGT, for which the binding signal was 0.577.
For CCGTCG, the binding signal was 0.818.
Still for that read-out and setting: for CGAGAC the value was 0.515; for GGTGTA, 0.767; for GTGAGT, 0.119.
Still for that read-out and setting: for GTAAGT the value was 0.75.
With AGAGCA, the binding signal was 0.7.
The same measure, in the same setting: the figure for CGCCAG is 0.654; for CAAAGG it is 0.833; for GCATAG it is 0.788.
On the same count and under the same terms, the figure for GAACGG is 0.638.
Sequence AGTCAA gave a binding signal of 0.609.
Same read-out and setting: the figure for CGGGTT is 1.02; for CGTCGT it is 0.857.
For the sequence AAGTCG, the binding signal turned out to be 0.495.
TGCCGT showed a binding signal of 0.849.
In turn, GTGTGT yielded a binding signal of 0.516.
Same read-out and setting: for GTGTGA the value was 0.547; for CAGTCG, 0.16.
Still for that read-out and setting: for GTCGCA the value was 0.721.
Same read-out and setting: for TCGGGA the value was 0.395; for CGAGTG, 0.776.
The sequence CTGTGA gave a binding signal of 0.466.
On the same count and under the same terms, for TAGTGA the value was 0.552.
On the same count and under the same terms, the figure for ACAGAC is 0.79; for GATTGT it is 0.748.
The sequence GTGCGG gave a binding signal of 0.703.
The same measure, in the same setting: for GTGCGA the value was 0.788; for GTGCGT, 0.581; for ATCGGC, 0.609.
On the same count and under the same terms, the figure for ACAGAG is 0.703; for GGCGAT it is 0.764.
Still for that read-out and setting: the figure for GTTGTG is 0.847; for AGCACC it is 0.868; for GAGGAG it is 0.21.
As to GGCCCA, the binding signal was 0.8.
For GCGGAC, the binding signal came out at 0.661.
